# Results taken from publication PMC12040169 (PLOS Biology, 2025).
# The list shows a part of the results.
# System: T1, CTL2-GFP (C. trachomatis L2/434/Bu, GFP-expressing)
# T1 construct: L2/434/Bu, GFP-expressing
# Design: species or system HeLa; Intracellular C. trachomatis growth in HeLa cells, bulk GFP fluorescence relative to DMSO
# Settings: bulk GFP, single well; 28.5 h, 10 µM; inhibitor
row,Structure (SMILES),% of control remaining
1,COc1ccc(-c2nc3ccccn3c2CN2CCC(C(=O)O)CC2)cc1 [CBK287052],131.335%
2,O=[N+]([O-])c1ccc(Cl)cc1N/N=C1\CN2CCC1CC2 [CBK217272],100%
3,O=C(CSc1ncn(-c2ccccc2)n1)Nc1ccc2[nH]c(=O)[nH]c2c1 [CBK268212],111.073%
4,Cn1c(=O)n(CC(=O)Nc2ccc(F)cc2)c2cccnc21 [CBK283919],130.353%
5,O=C(O)c1ccc(Cl)c(S(=O)(=O)N2CCCC2C(=O)O)c1 (stereo not drawn) [CBK265733],143.712%
6,CN1CCC(N2CCN(C(=O)NCC3COc4ccccc4O3)CC2)CC1 (stereo not drawn) [CBK155881],137.487%
7,Cc1ccc(Cl)c(OC(C)C(=O)N2CCCC(C(N)=O)C2)c1 (stereo not drawn) [CBK304936],106.756%
8,O=C(NCCN1CCOCC1)c1cc(-c2cccc(Br)c2)nc2ccccc12 [CBK263625],122.732%
9,CN1CCOc2cc(S(=O)(=O)Nc3nnn[nH]3)ccc21 [CBK062389],92.3926%
10,CCS(=O)(=O)CCNC(=O)c1cnc(N2CCCCC2)nc1C [CBK307715],103.004%
11,Cc1[nH]c2c(C)cccc2c1CC(=O)N(C)CCN(C)C [CBK282724],119.703%
12,COc1ccc2c(c1)CCN=C2C[C@H]1CN(C(=O)C2CC2)CC[C@H]1CC(=O)O [CBK289154],112.976%
13,c1ccc2oc(-c3cncc(NCCc4c[nH]c5ccccc45)n3)cc2c1 [CBK066068],149.631%
14,C[C@@H]1c2c(C(=O)OC(C)(C)C)ncn2-c2ccc(F)cc2N1CC(=O)N1CCCC1 [CBK016704],146.779%
15,O=C(Nc1cccc2ccccc12)/C(=C\c1ccco1)NC(=O)c1ccc(Br)cc1 [CBK264587],102.696%
16,Cc1ccc(-c2nc(C3CCN(C(=O)NC(C)C)CC3)n3ccccc23)cc1 [CBK046861],119.693%
17,CCN1CCC[C@@H]1CNC(=O)c1cc(Cl)nc(OC)c1 [CBK174692],126.619%
18,CC(C)C(=O)N1C[C@H]2CCc3nnc(-c4ccccc4)n3[C@H]2C1 [CBK283438],144.913%
19,O=C1c2ccccc2C(=O)N1c1ccc2nc(SCc3nc4ccccc4[nH]3)sc2c1 [CBK263368],79.6371%
20,COc1cc(C(=O)c2ccc(Cl)cc2)cc(Br)c1OCCN1CCOCC1 [CBK010131C],94.7584%
21,COc1cc(C)nc(NC(=O)COc2ccc(Cl)cc2C)n1 [CBK266681],111.183%
22,N#Cc1ccc(C(=O)Nc2ccc(N3CCNCC3)nc2)cc1 [CBK029435T],120.794%
23,CC(C)CC1CC(=O)Nc2c1c(=O)[nH]n2C(C)C (stereo not drawn) [CBK287924],122.331%
24,C#CCNS(=O)(=O)c1cccc(C(=O)NCC2CCCN(C(C)C)C2)c1 (stereo not drawn) [CBK305981],102.135%
25,Cn1ncnc1CNc1ccc(S(=O)(=O)N2CCCCCC2)cc1 [CBK305278],85.4007%
26,CCOC(=O)N1CCC(NS(=O)(=O)c2c(C)noc2C)CC1 [CBK045465],130.255%

row,Structure (SMILES),% of control remaining
1,CC(C)n1c(COc2ccc(OC(F)(F)F)cc2)n[nH]c1=S [CBK012989],96.6342%
2,Cc1cc(C(=O)NCCc2ccc(S(N)(=O)=O)cc2)no1 [CBK268130],114.229%
3,O=C(O)c1ccc(S(=O)(=O)NCc2ccc3c(c2)OCO3)cc1 [CBK262360],100%
4,O=C(Cn1cccc(C(=O)NCc2ccccc2)c1=O)Nc1cc(F)ccc1N1CCCC1 [CBK286041],120.531%
5,Cc1cccnc1Nc1nc(-c2sc(N)nc2C)cs1 [CBK267147],187.528%
6,O=c1cnnc(Nc2cccc(Cl)c2Cl)[nH]1 [CBK287897],100.174%
7,Cc1cc2c(o1)c1cnn(CC(=O)N3CCCC3)c(=O)c1n2C(C)C [CBK284232],107.578%
8,CC(C)(C)C(=O)Nc1nnc(SCC(=O)N2CCc3ccccc32)s1 [CBK004889],141.651%
9,NC(=O)c1c(NC(=S)NC(NC(=O)c2ccccc2)C(Cl)(Cl)Cl)sc2c1CCCC2 (stereo not drawn) [CBK261048],68.4307%
10,COc1cnc(-c2cnn(C)c2)c(NC(=O)Cc2ccccc2)n1 [CBK145327],125.971%
11,CCOc1ccc(-c2nn(-c3ccccc3)cc2/C=C2\SC(=S)N(CC(=O)O)C2=O)cc1F [CBK265647],100%
12,O=C(c1cnn2cccnc12)N1CCc2[nH]c3ccccc3c2C1 [CBK281874],97.0662%
13,COc1cccc2sc(NC(=O)Cc3ccccc3)nc12 [CBK149284],104.053%
14,c1ccc(Oc2ccc(Nc3cc(-c4ccc(N5CCOCC5)cc4)ncn3)cc2)cc1 [CBK090923],98.9341%
15,Cn1c(-c2nonc2N)nc2ccccc21 [CBK062642],91.4595%
16,O=S(=O)(Nc1nccnc1-c1ccc2c(c1)OCO2)c1ccc(Cl)cc1 [CBK050952],107.929%
17,N=C1OC2CSCC2N1C(=O)Cc1c(F)cccc1Cl (stereo not drawn) [CBK284517],134.148%
18,Cc1ccc(C(C)C)c(OCC(=O)Nc2cc(-c3nc4ccccc4[nH]3)ccc2C)c1 [CBK268724],118.217%
19,CSCCCNC(=O)c1cncc(-c2ccc(C(=O)N3CCOCC3)cc2)c1 [CBK158610],113.402%
20,OCC1CCCN1c1nccnc1-c1cccc(O)c1 (stereo not drawn) [CBK089052],92.9465%
21,COc1cc(CNC(=O)C(C)SCc2ccccc2)ccn1 (stereo not drawn) [CBK298331],115.714%
22,CCOC(=O)NC(=O)Nc1cc2ccccc2c(Br)n1 [CBK063282],115.94%
23,Cc1cc(Cl)c(S(=O)(=O)Nc2ccon2)cc1OCC(=O)NC1CCCCC1 [CBK266785],104.943%
24,Oc1ccccc1Sc1cnccn1 [CBK085840],96.0109%
25,Cc1ccc(S(N)(=O)=O)cc1NC(=O)c1ccco1 [CBK004204],122.089%

# A run of entries from the list above, as a working copy:
row,Structure (SMILES),% of control remaining
21,COc1cc(C)nc(NC(=O)COc2ccc(Cl)cc2C)n1 [CBK266681],111.183%
22,N#Cc1ccc(C(=O)Nc2ccc(N3CCNCC3)nc2)cc1 [CBK029435T],120.794%
23,CC(C)CC1CC(=O)Nc2c1c(=O)[nH]n2C(C)C (stereo not drawn) [CBK287924],122.331%
24,C#CCNS(=O)(=O)c1cccc(C(=O)NCC2CCCN(C(C)C)C2)c1 (stereo not drawn) [CBK305981],102.135%
25,Cn1ncnc1CNc1ccc(S(=O)(=O)N2CCCCCC2)cc1 [CBK305278],85.4007%
26,CCOC(=O)N1CCC(NS(=O)(=O)c2c(C)noc2C)CC1 [CBK045465],130.255%
1,CC(C)n1c(COc2ccc(OC(F)(F)F)cc2)n[nH]c1=S [CBK012989],96.6342%
2,Cc1cc(C(=O)NCCc2ccc(S(N)(=O)=O)cc2)no1 [CBK268130],114.229%
3,O=C(O)c1ccc(S(=O)(=O)NCc2ccc3c(c2)OCO3)cc1 [CBK262360],100%
4,O=C(Cn1cccc(C(=O)NCc2ccccc2)c1=O)Nc1cc(F)ccc1N1CCCC1 [CBK286041],120.531%
5,Cc1cccnc1Nc1nc(-c2sc(N)nc2C)cs1 [CBK267147],187.528%
6,O=c1cnnc(Nc2cccc(Cl)c2Cl)[nH]1 [CBK287897],100.174%
7,Cc1cc2c(o1)c1cnn(CC(=O)N3CCCC3)c(=O)c1n2C(C)C [CBK284232],107.578%
